Assay results: publication doi:10.1101/2023.08.23.554465
Results are given in words; binding and its absence hold for the method and conditions named. In cells and extracts the contact can be indirect. These calls come from enrichment with a bait or labelling near it, and not all partners need be listed. One block for each molecule: values may come before it.

Chains of the proteins cited; added tags and fusions are not shown.
UniProt P46938: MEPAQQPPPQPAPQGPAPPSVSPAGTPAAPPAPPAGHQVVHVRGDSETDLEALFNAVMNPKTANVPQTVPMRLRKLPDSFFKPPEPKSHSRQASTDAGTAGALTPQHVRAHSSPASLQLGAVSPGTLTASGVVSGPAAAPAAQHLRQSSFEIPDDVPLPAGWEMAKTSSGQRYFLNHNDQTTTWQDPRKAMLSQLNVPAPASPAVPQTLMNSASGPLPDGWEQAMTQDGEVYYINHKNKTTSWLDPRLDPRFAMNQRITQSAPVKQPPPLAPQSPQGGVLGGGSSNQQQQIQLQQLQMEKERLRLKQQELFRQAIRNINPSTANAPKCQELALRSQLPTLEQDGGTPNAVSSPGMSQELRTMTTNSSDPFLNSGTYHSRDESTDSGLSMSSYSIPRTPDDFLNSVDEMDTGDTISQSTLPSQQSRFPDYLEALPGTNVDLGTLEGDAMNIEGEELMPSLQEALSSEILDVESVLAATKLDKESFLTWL
UniProt Q9WUD1: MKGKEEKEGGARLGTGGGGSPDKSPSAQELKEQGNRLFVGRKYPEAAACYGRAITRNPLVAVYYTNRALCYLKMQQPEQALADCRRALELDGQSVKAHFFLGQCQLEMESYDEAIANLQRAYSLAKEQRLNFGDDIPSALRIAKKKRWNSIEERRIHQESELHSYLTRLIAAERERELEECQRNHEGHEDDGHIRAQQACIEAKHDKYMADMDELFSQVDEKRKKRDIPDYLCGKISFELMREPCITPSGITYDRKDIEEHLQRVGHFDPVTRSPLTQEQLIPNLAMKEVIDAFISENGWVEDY

Molecular target: Yes-Associated Protein (YAP) (mouse (endogenous in EpH4)) (UniProt P46938)
Experiment: affinity purification with mass spectrometry

binding: binds
Molecule: Stub1 (from UniProt Q9WUD1 1-304)

binding: binds
B1: Ube2c (protein, UniProt Q9D1C1 1-179)
chain: MASQNRDPAAASVAAVRKGAEPCGGAARGPVGKRLQQELMILMTSGDKGISAFPESDNLFKWVGTIHGAAGTVYEDLRYKLSLEFPSGYPYNAPTVKFLTPCYHPNVDTQGNICLDILKDKWSALYDVRTILLSIQSLLGEPNIDSPLNTHAAELWKNPTAFKKYLQETYSKQVSSQDP
